Values from PubChem BioAssay AID504791 (Drosophila RNAi Screening Center, 2011)

Purpose: 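Genes whose knock-down strengthens or weakens small-RNA reporter silencing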 (primary screen)
Cell system: Drosophila S2-derived reporter cells
Reagent: long dsRNA against Drosophila genes, about 150-250 ng dsRNA per well (siRNA assay); about 80-120 ng (miRNA assay)
Time to read-out: about 5 days (siRNA assay); about 4 days (miRNA assay)
Treatment: copper sulfate induction of reporters: 25 µM (siRNA assay); 200 mM stated (miRNA assay), 1-2 days before reading
Detection: 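Dual luciferase assay: Renilla to firefly signal ratio in each well, scaled to the mean ratio of its plate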
Reading the numbers: siRNA reporter hit score: higher = 3 marks a strong hit with raised ratio; -3 a strong hit with lowered ratio
Active means: 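a well was a first-pass pick when its plate-scaled ratio rose above 1.5 (siRNA assay) or 1.6 (miRNA assay), or dropped below 0.6; a gene counted only if two separate dsRNAs agreed on retest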
The screen tested about 23,000 reagents; this is an unselected part of those that have a named target and a result. Of all reagents, 199 (0.86%) are marked active. 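Plate-scaled ratios behind the calls are not deposited; printed light signals are raw; many rows marked increased or decreased are still called inactive.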 A number with no mark means an inactive call. Names joined by + are all predicted targets of the reagent.

no.	Target gene	DRSC id	siRNA reporter hit score	stable siRNA reporter change	miRNA reporter change	stable assay Renilla, run 1 (luminescence)	stable assay firefly, run 1 (luminescence)
1	vvl	DRSC11409				5575	3.50e5
2	CG7272	DRSC10795				7560	3.33e5
3	CG10527	DRSC04078				50926	6.43e5
4	Spn28Db	DRSC22033				9326	7.30e5
5	CG8677 + CG31626	DRSC01838				5883	5.29e5
6	CG33491 (retired record) + CG33496 (retired record) + CG33487 (retired record) + 1 more	DRSC22969				4032	3.92e5
7	DhpD	DRSC12288				9867	3.42e5
8	CG5381	DRSC02852				7962	4.42e5
9	BCL7-like	DRSC17729				7543	4.52e5
10	CG34001	DRSC09042				4235	3.57e5
11	mRpS26	DRSC10823				6674	3.06e5
12	CR30374	DRSC05080				4635	4.90e5
13	mnb	DRSC20058				4599	3.40e5
14	mnb	DRSC20353				6079	4.18e5
15	mnb	DRSC23347				4076	2.77e5
16	Grik	DRSC15846				8911	3.89e5
17	Grik	DRSC15847				8158	3.33e5
18	CG5860	DRSC15896				9216	5.21e5
19	Pax	DRSC01703				5492	3.29e5
20	Pax	DRSC02651				9958	1.64e6
21	Pax	DRSC02652				7539	4.52e5
22	Cpr76Bd	DRSC11063				5979	3.49e5
23	CG7841	DRSC10922				7783	4.04e5
24	Ilp8	DRSC10076				7752	4.17e5
25	CG31715	DRSC21607				8218	4.10e5
26	Nup35	DRSC19999				9407	3.50e5
27	CG9101	DRSC20152				5958	5.57e5
28	CG18745	DRSC15382				7498	4.16e5
29	CG31910 + snoRNA:Me28S-G2743 (retired record)	DRSC00946				5327	4.25e5
30	sced	DRSC04990				1.72e5	1.09e6
31	Prat2	DRSC09692				7963	5.12e5
32	CG1231	DRSC08267			reporter ratio lowered past the hit cutoff	4627	3.25e5
33	fusl	DRSC02351				1.19e5	1.06e5
34	CG18735	DRSC04312				6547	3.62e5
35	Spps	DRSC15856				6318	2.85e5
36	Spps	DRSC23206				4775	2.88e5
37	CG31230	DRSC22130				9134	8.19e5
38	CG31230	DRSC26678			reporter ratio raised past the hit cutoff		
39	CG1309	DRSC08302				7595	3.47e5
40	CG32683	DRSC17990				5858	4.29e5
41	CG32683	DRSC18232				6018	4.83e5
42	CG32683	DRSC18233				5811	5.37e5
43	Urm1	DRSC22941				4547	3.96e5
44	RpL41	DRSC22958				5355	6.45e5
45	CG33128	DRSC00294				5643	6.17e5
46	CR40354	DRSC20923				4642	3.87e5
47	Amyrel	DRSC05920				11423	4.27e5
48	CG32772	DRSC18052				2828	2.02e5
49	CG32772	DRSC18406				7390	4.89e5
50	CG32772	DRSC22349				8442	6.25e5
51	Ptpmeg	DRSC08684				10636	3.19e5
52	SelG	DRSC19808				8561	5.72e5
53	CG11857	DRSC14411				6642	3.01e5
54	Rga	DRSC12364				9075	5.57e5
55	BomBc2	DRSC06502				4790	3.01e5
56	CG14135	DRSC10140				6620	3.85e5
57	Trmt6	DRSC03272				8587	5.19e5
58	CG11068	DRSC19369				5560	3.75e5
59	l(2)k14505	DRSC03106				30377	5.57e5
60	nej	DRSC18006				4435	3.68e5
61	nej	DRSC18801				6790	4.84e5
62	row	DRSC07076				10125	6.00e5
63	row	DRSC07077				5936	3.35e5
64	thw	DRSC12552				7583	4.07e5
65	Tret1-1	DRSC07046		reporter ratio raised past the hit cutoff		5830	1.99e5
66	Tret1-1	DRSC07048				5868	2.17e5
67	tacc	DRSC12019				6403	4.73e5
68	tacc	DRSC12388				4031	5.25e5
69	Mal-A7	DRSC06077				7018	4.17e5
70	Ack	DRSC08135				7222	3.31e5
71	RpS19b	DRSC15773				8693	4.36e5
72	Hs2st	DRSC03348				16760	1.38e6
73	Exn	DRSC09673				9717	4.02e5
74	Exn	DRSC10077				8367	3.80e5
75	pHCl-2	DRSC14306				7486	3.97e5
76	CG4073	DRSC15542				7222	3.73e5
77	ABCB7	DRSC08603				7078	3.59e5
78	Nnf1b	DRSC22080				8195	4.54e5
79	Spn42Dd	DRSC05024				7015	5.27e5
80	Spn42Dd	DRSC22060				9514	6.20e5
81	Xpd	DRSC04666	-3			3.20e5	2.11e5
82	PIG-F	DRSC11069				7869	3.61e5
83	CG32533	DRSC19443				7626	5.21e5
84	CG32533	DRSC19553				6319	3.05e5

4 entries from above, ordered by “stable assay Renilla, run 1 (luminescence)”, ascending.
Target gene	DRSC id	siRNA reporter hit score	stable siRNA reporter change	miRNA reporter change	stable assay Renilla, run 1 (luminescence)	stable assay firefly, run 1 (luminescence)
tacc	DRSC12388				4031	5.25e5
Mal-A7	DRSC06077				7018	4.17e5
Ack	DRSC08135				7222	3.31e5
RpS19b	DRSC15773				8693	4.36e5
